± gives the standard deviation of the averaged measurements. Values are relative to the signal before dosing, not to a vehicle control; the signal also falls without drug.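 Fibroblast labels name human fibroblasts: mostly primary ones from tissues such as uterus (C12385, HUF), lung (H6013), bone (Hs27A), adrenal (HADF) and skin (WS1), plus mammary HMF and breast cancer-associated Hs343T. The cancer cells are basal-like or mesenchymal-like triple-negative breast cancer lines. The paper calls a changed response a hit when it shifts by more than 3x the replicate standard deviation. The tissue of the other fibroblasts is not given here.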
Test system: MDAMB468
Assay: relative JC-1 red fluorescence (viability) vs pre-drug, coculture with fibroblast (fraction); higher = more viable cancer cells
Method: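 JC-1 labelled TNBC cells cocultured 1:1 (1,500 cells each) with CellTrace Violet stained primary or stromal fibroblasts in 384-well plates in FluoroBrite medium, treated with one of 42 anticancer drugs at 0.1, 1, 10 or 100 uM. JC-1 red fluorescence (mitochondrial integrity in cancer cells only) was read by plate reader every 8 h for 72 h. Values are normalised to each well's pre-drug value. The stock of one drug was tenfold lower, so its dose labels may be too high.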

O=c1[nH]cc(F)c(=O)[nH]1 [Fluorouracil]
relative JC-1 red fluorescence
Conditions	8 h	16 h	24 h	32 h	40 h	48 h	56 h	64 h	72 h
0.1 µM, coculture fibroblast: C12385	0.90361 ± 0.00033	0.8315 ± 0.0033	0.813 ± 0.015	0.778 ± 0.021	0.752 ± 0.0097	0.769 ± 0.0089	0.734 ± 0.011	0.713 ± 0.025	0.719 ± 0.019
0.1 µM, coculture fibroblast: H6013	0.8994 ± 0.0029	0.821 ± 0.011	0.806 ± 0.022	0.801 ± 0.025	0.778 ± 0.037	0.786 ± 0.037	0.75 ± 0.037	0.735 ± 0.039	0.682 ± 0.038
0.1 µM, coculture fibroblast: H6019	0.8344 ± 0.0021	0.7923 ± 0.0027	0.783 ± 0.015	0.726 ± 0.028	0.689 ± 0.032	0.671 ± 0.031	0.62 ± 0.034	0.59 ± 0.044	0.561 ± 0.057
0.1 µM, coculture fibroblast: H6076	0.9503 ± 0.0018	0.912 ± 0.022	0.879 ± 0.023	0.892 ± 0.021	0.817 ± 0.014	0.816 ± 0.02	0.78 ± 0.017	0.769 ± 0.023	0.824 ± 0.028
0.1 µM, coculture fibroblast: H6231	0.8297 ± 0.0023	0.9902 ± 0.0064	0.896 ± 0.011	0.836 ± 0.028	0.791 ± 0.023	0.763 ± 0.021	0.711 ± 0.018	0.674 ± 0.017	0.646 ± 0.017
0.1 µM, coculture fibroblast: HADF	0.901 ± 0.029	0.82 ± 0.0098	0.7908 ± 0.0067	0.77976 ± 0.00061	0.7322 ± 0.0016	0.721 ± 0.0089	0.6784 ± 0.0029	0.656 ± 0.0074	0.618 ± 0.012
0.1 µM, coculture fibroblast: HCFa	0.88594 ± 2.1e-06	0.82 ± 0.013	0.791 ± 0.011	0.7541 ± 0.0074	0.6909 ± 0.0054	0.6776 ± 0.0037	0.617 ± 0.008	0.575 ± 0.0055	0.5315 ± 0.0042
0.1 µM, coculture fibroblast: HCPF	0.893 ± 0.042	0.916 ± 0.12	0.92 ± 0.061	0.898 ± 0.065	0.847 ± 0.066	0.831 ± 0.067	0.783 ± 0.075	0.775 ± 0.082	0.748 ± 0.094
0.1 µM, coculture fibroblast: HHSteC	0.94 ± 0.022	0.847 ± 0.027	0.81 ± 0.019	0.764 ± 0.0087	0.71 ± 0.018	0.691 ± 0.036	0.615 ± 0.059	0.588 ± 0.064	0.542 ± 0.073
0.1 µM, coculture fibroblast: HMF	0.8792 ± 0.0037	0.964 ± 0.035	0.90515 ± 0.00032	0.905 ± 0.029	0.844 ± 0.025	0.83 ± 0.03	0.793 ± 0.043	0.782 ± 0.051	0.777 ± 0.047
0.1 µM, coculture fibroblast: HPFa	0.93 ± 0.013	0.9068 ± 0.0085	0.838 ± 0.022	0.789 ± 0.028	0.741 ± 0.032	0.729 ± 0.051	0.659 ± 0.05	0.624 ± 0.052	0.549 ± 0.044
0.1 µM, coculture fibroblast: HUF	0.9119 ± 0.0054	0.8237 ± 0.0046	0.751 ± 0.00071	0.68 ± 0.0081	0.626 ± 0.0095	0.5931 ± 0.0038	0.549 ± 0.0078	0.514 ± 0.011	0.49 ± 0.0063
0.1 µM, coculture fibroblast: Hs5	0.743 ± 0.048	0.952 ± 0.037	0.875 ± 0.059	0.857 ± 0.073	0.779 ± 0.078	0.743 ± 0.087	0.703 ± 0.095	0.672 ± 0.1	0.688 ± 0.1
0.1 µM, coculture fibroblast: Hs27A	0.85863 ± 0.00044	0.7805 ± 0.0021	0.756 ± 0.0078	0.762 ± 0.022	0.711 ± 0.032	0.711 ± 0.038	0.672 ± 0.043	0.646 ± 0.049	0.603 ± 0.051
0.1 µM, coculture fibroblast: Hs343T	0.8959 ± 0.0013	0.9531 ± 0.0038	0.903 ± 0.026	0.875 ± 0.024	0.803 ± 0.028	0.787 ± 0.027	0.729 ± 0.024	0.712 ± 0.026	0.691 ± 0.013
0.1 µM, coculture fibroblast: WS1	0.8834 ± 0.0012	0.773 ± 0.022	0.736 ± 0.023	0.663 ± 0.019	0.615 ± 0.024	0.588 ± 0.027	0.561 ± 0.015	0.535 ± 0.011	0.526 ± 0.0083
1 µM, coculture fibroblast: C12385	0.8701 ± 0.0082	0.7967 ± 0.0025	0.786 ± 0.011	0.7319 ± 0.0018	0.695 ± 0.0088	0.676 ± 0.011	0.645 ± 0.021	0.621 ± 0.029	0.618 ± 0.025
1 µM, coculture fibroblast: H6013	0.873 ± 0.014	0.8638 ± 0.0029	0.8195 ± 0.0047	0.795 ± 0.027	0.778 ± 0.024	0.79 ± 0.028	0.761 ± 0.034	0.757 ± 0.034	0.7 ± 0.037
1 µM, coculture fibroblast: H6019	0.811 ± 0.015	0.783 ± 0.052	0.759 ± 0.055	0.704 ± 0.068	0.666 ± 0.064	0.646 ± 0.075	0.601 ± 0.075	0.565 ± 0.078	0.538 ± 0.082
1 µM, coculture fibroblast: H6076	0.936 ± 0.017	0.871 ± 0.037	0.832 ± 0.034	0.835 ± 0.033	0.769 ± 0.023	0.763 ± 0.027	0.717 ± 0.035	0.713 ± 0.03	0.749 ± 0.031
1 µM, coculture fibroblast: H6231	0.8383 ± 0.0074	0.9177 ± 0.0048	0.8201 ± 0.0014	0.8073 ± 0.0078	0.754 ± 0.0094	0.728 ± 0.019	0.672 ± 0.023	0.656 ± 0.025	0.634 ± 0.032
1 µM, coculture fibroblast: HADF	0.9151 ± 0.0077	0.8387 ± 0.0082	0.7995 ± 0.0053	0.79 ± 0.017	0.755 ± 0.026	0.756 ± 0.018	0.71 ± 0.009	0.709 ± 0.017	0.666 ± 0.017
1 µM, coculture fibroblast: HCFa	0.846 ± 0.0077	0.857 ± 0.04	0.822 ± 0.07	0.812 ± 0.09	0.764 ± 0.092	0.758 ± 0.091	0.721 ± 0.089	0.687 ± 0.087	0.632 ± 0.094
1 µM, coculture fibroblast: HCPF	0.881 ± 0.018	0.9035 ± 0.009	0.841 ± 0.025	0.831 ± 0.032	0.758 ± 0.021	0.734 ± 0.018	0.68 ± 0.021	0.665 ± 0.018	0.651 ± 0.032
1 µM, coculture fibroblast: HHSteC	0.9308 ± 0.0075	0.856 ± 0.029	0.803 ± 0.032	0.78 ± 0.056	0.732 ± 0.063	0.726 ± 0.078	0.658 ± 0.058	0.626 ± 0.07	0.571 ± 0.065
1 µM, coculture fibroblast: HMF	0.8561 ± 0.0082	0.911 ± 0.037	0.863 ± 0.037	0.849 ± 0.041	0.786 ± 0.066	0.772 ± 0.066	0.726 ± 0.063	0.695 ± 0.059	0.681 ± 0.049
1 µM, coculture fibroblast: HPFa	0.932 ± 0.011	0.893 ± 0.021	0.845 ± 0.011	0.7928 ± 0.007	0.7571 ± 0.0061	0.748 ± 0.0086	0.685 ± 0.013	0.646 ± 0.02	0.571 ± 0.019
1 µM, coculture fibroblast: HUF	0.921 ± 0.014	0.839 ± 0.019	0.786 ± 0.029	0.722 ± 0.044	0.672 ± 0.044	0.652 ± 0.06	0.607 ± 0.064	0.588 ± 0.069	0.566 ± 0.069
1 µM, coculture fibroblast: Hs5	0.932 ± 0.049	0.865 ± 0.0091	0.831 ± 0.029	0.809 ± 0.0086	0.739 ± 0.018	0.713 ± 0.017	0.669 ± 0.0082	0.641 ± 0.012	0.6689 ± 0.0042
1 µM, coculture fibroblast: Hs27A	0.862 ± 0.018	0.801 ± 0.012	0.759 ± 0.008	0.7498 ± 0.0047	0.6952 ± 0.003	0.6852 ± 0.004	0.6315 ± 0.0049	0.6061 ± 0.0027	0.5515 ± 0.001
1 µM, coculture fibroblast: Hs343T	0.87274 ± 0.0002	0.898 ± 0.013	0.818 ± 0.022	0.79 ± 0.023	0.716 ± 0.036	0.691 ± 0.042	0.658 ± 0.038	0.642 ± 0.032	0.627 ± 0.029
1 µM, coculture fibroblast: WS1	0.858 ± 0.029	0.77 ± 0.045	0.735 ± 0.073	0.665 ± 0.085	0.619 ± 0.088	0.587 ± 0.092	0.559 ± 0.086	0.522 ± 0.091	0.513 ± 0.093

Reference: the supplement of paper PMC6078165
